Measurements taken from PubChem BioAssay AID504444 (National Center for Advancing Translational Sciences (NCATS), 2011).
The whole screen tested about 360,000 compounds, of which about 7,500 (2.1%) were called active. This list was built around the results that the source calls inconclusive (neither active nor inactive); the mix of calls is not that of the screen. The call rests on the fitted dose curve; in most records, active means well fitted inhibition curve with a large enough effect; inconclusive means small, poorly fitted or top-dose-only effect, or effect the other way; inactive means flat fitted curve, though single readings scatter. Where the call is inconclusive, the potency comes from a doubtful curve fit.
On the % scale 0 is the no-effect control and ±100 the full control effect; potency means the concentration at half of the fitted maximal effect.

Test: Nrf2 qHTS screen for inhibitors; further: nearly all actives have a fitted effect of over 60% in size
Details: A549 ARE-Fluc reporter, luciferase luminescence, 18-24 h; activity change, negative = inhibition: at 46 µM (top of the series)
Summary of the method: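 Nrf2 function is reported as luminescence of an ARE-controlled luciferase in A549 cells. Compounds were tested at several concentrations, and a CellTiter-Fluor read on the same wells flagged cytotoxicity.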
In the case of `Cc1ccc2c(c1)cc1c(=O)n(CC(=O)NC3CCCCC3)nc(C)n12`, the “activity change, negative = inhibition” value is reported as inactive: 7.62%. For `CC(C(=O)Nc1ccc(Cl)cc1Cl)N1C(=O)NC2(CCCCCCC2)C1=O` (configuration not stated), the Potency was inconclusive: 29.1 µM [falling, single point]. For `O=C(CCSc1nc(-c2ccco2)cc(C(F)(F)F)n1)N1CCN(c2ccccn2)CC1`, the Potency was inconclusive: 29.1 µM [falling, partial curve, poor fit]. For `COc1ccccc1NS(=O)(=O)c1ccc(C)c(C(=O)N2CCN(c3ccc(O)cc3)CC2)c1`, the Potency was inconclusive: 25.9 µM [falling, single point]. In the case of `Cc1cccn2c(=O)c3cc(C(=O)NCc4ccccc4)c(=N)n(CCOCCO)c3nc12`, the Potency is reported as inconclusive: 18.4 µM [falling, partial curve, poor fit]. With `c1ccc(-n2nnnc2NCCc2c[nH]c3ccccc23)cc1` the Potency was inconclusive: 5.17 µM [falling, partial curve, poor fit]. With `CC(C)(C)OC(=O)COc1ccc(/C=N/NC(=O)CN2CCCCC2)cc1` the Potency was inconclusive: 9.2 µM [activator, partial curve]. For `CC1=NN(C(N)=S)C(=O)C1N=Nc1ccc(Cl)cc1Cl` (configuration not stated), the Potency was inconclusive: 10.3 µM [activator, partial curve, poor fit]. For `Cc1ccc(C2=N/C(=C/c3cccs3)C(=O)N2Nc2ccccc2)cc1`, the Potency was inconclusive: 16.4 µM [falling, partial curve, poor fit]. With `Cc1cccc(/C=N/NC(=O)c2cc(Br)ccc2OCc2ccccc2)n1` the Potency was inconclusive: 18.4 µM [falling, single point]. In the case of `O=C(Nc1ccc(CN2CCOCC2)cc1)c1ccc(F)cc1`, the Potency is reported as inconclusive: 10.3 µM [activator, partial curve]. In the case of `Cc1ccc(S(=O)(=O)c2nc(-c3cccc(C)c3)oc2N2CCN(c3ccccc3)CC2)cc1`, the “activity change, negative = inhibition” value is reported as inactive: 20.7%. In the case of `COc1ccc2c(c1)CCc1c(C(=O)Nc3c(C)nn(Cc4ccc(Cl)c(Cl)c4)c3C)noc1-2`, the Potency is reported as active: 4.61 µM. With `COc1ccc2[nH]c3c(c2c1)CCN1C(=O)C(CC(=O)NCCc2ccccn2)C[C@H](C(=O)N2CCCCC2)[C@@]31CCc1ccccc1` (some centres not stated) the Potency was active: 20.6 µM. In the case of `O=C(N/N=C/c1ccc([N+](=O)[O-])o1)c1ccc2c(c1)OCO2`, the Potency is reported as inconclusive: 25.9 µM [falling, single point]. With `COC(=O)c1sc2cccc(F)c2c1S(=O)(=O)N1CCN(c2ccc(F)cc2)CC1` the Potency was inconclusive: 29.1 µM [falling, single point]. With `O=C(Cn1cnc2c(nnn2Cc2ccc(F)cc2)c1=O)Nc1ccccc1` the “activity change, negative = inhibition” value was inactive: -4.92%. For `CC(=O)c1ccc(N2CCN(Cc3cc(=O)n4c(-c5ccccc5)csc4n3)CC2)cc1`, the Potency was inconclusive: 29.1 µM [falling, single point]. For `Nc1nnc(SCC(=O)Nc2ccc(F)c(Cl)c2)n1-c1ccccc1`, the Potency was inconclusive: 29.1 µM [falling, single point]. With `O=C(Nc1cc(N2CCCCC2)ncn1)c1ccc(F)cc1` the Potency was inconclusive: 25.9 µM [activator, partial curve, poor fit]. In the case of `O=C1OCCC1Sc1nnc(-c2ccccc2)o1` (configuration not stated), the “activity change, negative = inhibition” value is reported as inactive: -9.9%. For `CN1CCSc2ccc(C(=O)Nc3cccc(F)c3)cc21`, the Potency was inconclusive: 2.31 µM [activator, full curve]. With `COC(=O)c1sc2nc(C)nc(SCC(=O)Nc3sccc3C(N)=O)c2c1C` the Potency was inconclusive: 20.6 µM [falling, single point]. With `COc1ccccc1N1CCN(C(=O)CSc2nc3ccccc3nc2N2CCC(C)CC2)CC1` the Potency was inconclusive: 32.6 µM [activator, single point]. With `CN(NC(=O)/C=C/C(=O)O)c1ncc(C(F)(F)F)cc1Cl` the Potency was inconclusive: 32.6 µM [activator, single point]. With `Cc1nc2ccccc2n1CCOc1ccc([N+](=O)[O-])cc1` the Potency was inconclusive: 6.51 µM [falling, partial curve, poor fit]. With `Nc1cc(=O)[nH]c(SCCSc2ccccc2)n1` the Potency was inconclusive: 16.4 µM [falling, single point]. With `O=C(O)c1cc(-c2cccnc2)nc2ccc(Br)cc12` the “activity change, negative = inhibition” value was inactive: 12.5%. In the case of `COc1cccc(OC)c1Oc1ccc(C(F)(F)F)cn1`, the “activity change, negative = inhibition” value is reported as inactive: -14.8%. With `CN(C(=O)COc1ncnc2ccccc12)C1CCCCC1` the “activity change, negative = inhibition” value was inactive: 16.8%. In the case of `Cc1ccccc1Cn1cnc2ccccc21`, the Potency is reported as inconclusive: 18.4 µM [falling, partial curve]. In the case of `CCOC(=O)N/N=C\c1ccc(-c2cc(Cl)ccc2Cl)o1`, the Potency is reported as inconclusive: 29.1 µM [activator, single point]. For `O=C(Cc1cccc2ccccc12)N/N=C/C=C/c1cccc([N+](=O)[O-])c1`, the Potency was inconclusive: 11.6 µM [falling, partial curve]. For `COc1ccccc1NC(=O)N1CCc2[nH]c3ccc(Cl)cc3c2C1`, the Potency was inconclusive: 3.66 µM [falling, partial curve, poor fit]. With `COc1ccc2o/c(=N/NC(=O)c3cccs3)c(C(N)=O)cc2c1` the Potency was inconclusive: 6.51 µM [activator, single point]. In the case of `CC(=O)Nc1ccc(-c2csc(NC(=O)C3CC(=O)N(c4ccc5c(c4)OCCO5)C3)n2)cc1` (configuration not stated), the Potency is reported as inconclusive: 0.0073 µM [falling, full curve, poor fit]. With `CCC(C)Nc1ncnc2c1cnn2Cc1ccc(Cl)cc1` (configuration not stated) the Potency was inconclusive: 10.3 µM [falling, partial curve]. In the case of `Cc1nn(C)c(C)c1-c1c(C#N)c(N)nc2c1CCCCCC2`, the “activity change, negative = inhibition” value is reported as inactive: -3.4%. In the case of `CCCc1ccc(S(=O)(=O)N2CCC(Oc3ccc(-n4cnnn4)cc3)CC2)cc1`, the Potency is reported as inconclusive: 11.6 µM [falling, single point]. For `O=C(COc1ccccc1)NCCSCc1ccccc1Cl`, the Potency was inconclusive: 0.92 µM [activator, full curve, poor fit]. For `COCCn1c(=O)[nH]c2cc(C(=O)NCCCN3CCN(c4ccc(F)cc4)CC3)ccc2c1=O`, the “activity change, negative = inhibition” value was inactive: -15.6%. For `CN(C)c1nc(-c2ccccc2)c2cc(Cl)ccc2n1`, the Potency was inconclusive: 29.1 µM [falling, single point].
